# Laboratory results from PubChem BioAssay AID240 (DTP/NCI, 2004).
# The list shows only some results of the screen, not a fair sample: it is rich in T/C values a quarter to a half above the control, in often repeated tests (any T/C) and in doses without a T/C. Further doses and runs are listed elsewhere. T/C gives the treated animals as a percentage of the vehicle group. Some entries give survivors of the animals treated and no T/C: the source holds a T/C of zero for them, seemingly a mark for toxic or unscored doses. Some survivor counts are full or nearly so, which does not show that the dose was tolerated: the source hardly ever lists a survival T/C far under the control, and the zero likely stands for such cases as well. Survivors were counted at the toxicity check, usually on the fifth day, unless a day is given; later deaths do not show. Schedule codes are those of the source, taken here to give the interval after Q, in days (D) or hours (H), and the number of doses after X. Some entries hold several experiments; their values stand side by side, smallest first. For survival time, this PubChem deposit counts one and a half times the control or more as active, and values a quarter to a half above the control carry no call in these data; other NCI protocols may use other cut-offs. Brackets with × say how often a value occurs here. Some T/C values are followed by the survivors on the day toxicity was checked, most often the fifth; without a count, all were alive then.
# Test system: Lymphoma 4 ip in BDF1 mice, median survival
# Test: NCI In Vivo Anticancer Drug Screen. Data for tumor model Lymphoma 4 (intraperitoneal) in B6D2F1 (BDF1) mice
# Details: T/C endpoint: median survival time, schedule: Q01DX010 (ip), higher T/C = longer survival
# Experimental: The antitumor activity of compounds was measured in mice bearing transplantable tumors. Survival or tumor size were measured and the results are expressed as the measurement made in the treated group (T) divided by the measurement made in the vehicle treated control group (C). The tumor model used in this assay is Lymphoma 4 (intraperitoneal) in B6D2F1 (BDF1) mice
# [1] = dose: 100.0 mg/kg/injection, vehicle: saline
# [2] = dose: 32.0 mg/kg/injection, vehicle: saline
# [3] = dose: 64.0 mg/kg/injection, vehicle: saline
# [4] = dose: 1.25 mg/kg/injection, vehicle: saline
# [5] = dose: 2.5 mg/kg/injection, vehicle: saline
# [6] = dose: 5.0 mg/kg/injection, vehicle: saline
# [7] = dose: 40.0 mg/kg/injection, vehicle: saline
# [8] = dose: 10.0 mg/kg/injection, vehicle: saline
# [9] = dose: 20.0 mg/kg/injection, vehicle: saline
# [10] = dose: 80.0 mg/kg/injection, vehicle: saline
# [11] = dose: 1.0 mg/kg/injection, vehicle: other
# [12] = dose: 2.0 mg/kg/injection, vehicle: other
# [13] = dose: 4.0 mg/kg/injection, vehicle: other
# [14] = dose: 8.0 mg/kg/injection, vehicle: other
# [15] = dose: 6.25 mg/kg/injection, vehicle: saline
# [16] = dose: 12.5 mg/kg/injection, vehicle: saline
# [17] = dose: 25.0 mg/kg/injection, vehicle: saline
# [18] = dose: 50.0 mg/kg/injection, vehicle: saline
compound,measurement,setting,value
CCN(CC)CCNc1ccc(C)c2sc3ccccc3c(=O)c12,survivor count,[1],6 of 6
same,survivor count,"dose: 200.0 mg/kg/injection, vehicle: saline",5 of 6 and 6 of 6
CN(C)c1ccc(/C=C/c2ccnc3ccccc23)cc1,T/C,[2],"89, 90 [5 of 6 alive], 92, 100 % of control"
same,survivor count,[3],6 of 6
same,survivor count,"dose: 128.0 mg/kg/injection, vehicle: saline",6 of 6
same,survivor count,"dose: 256.0 mg/kg/injection, vehicle: saline",0 of 6 and 3 of 6
Nc1nc(SCc2ccccc2)c2[nH]cnc2n1,survivor count,[2],6 of 6
same,survivor count,[3],6 of 6
S=P(N1CC1)(N1CC1)N1CC1,T/C,"dose: 3.0 mg/kg/injection, vehicle: saline",142 and 143 % of control
same,survivor count,"dose: 6.0 mg/kg/injection, vehicle: saline",6 of 6
CC[n+]1c(-c2ccccc2)c2cc(N)ccc2c2ccc(N)cc21,T/C,[4],130 % of control
same,T/C,[5],146 % of control
same,T/C,[6],146 % of control
Nc1nc(F)nc2c1ncn2C1OC(CO)C(O)C1O (centres undefined),survivor count,"dose: 2.0 mg/kg/injection, vehicle: saline",7 of 7
CS(=O)(=O)OCCCl,survivor count,"dose: 150.0 mg/kg/injection, vehicle: saline",0 of 6
C[C@@H]1C[C@@H]([C@H](O)CC2CC(=O)NC(=O)C2)C(=O)[C@@H](C)C1,survivor count,[7],5 of 6
O=C(O)c1[nH]c(=O)[nH]c(=O)c1F,T/C,[4],128 % of control
same,T/C,[5],126 and 128 % of control
same,survivor count,[8],6 of 6
COc1cc(-c2ccc(Nc3ccccc3C(=O)O)c(OC)c2)ccc1N,T/C,[9],126 % of control
same,T/C,[7],126 % of control
same,T/C,[10],134 % of control [5 of 6 alive]
CCn1cnc2c(=S)nc[nH]c21,survivor count,"dose: 31.3 mg/kg/injection, vehicle: saline",6 of 6
same,survivor count,"dose: 62.5 mg/kg/injection, vehicle: saline",6 of 6
same,survivor count,"dose: 125.0 mg/kg/injection, vehicle: saline",6 of 6
CN(C)c1ccc(Nc2c3ccccc3nc3ccccc23)cc1,T/C,"dose: 120.0 mg/kg/injection, vehicle: saline",142 % of control (2×)
same,survivor count,"dose: 180.0 mg/kg/injection, vehicle: saline",5 of 6
O=c1[nH]c(=O)n(C2CC(O)C(CO)O2)cc1F (centres undefined),T/C,[7],132 % of control
same,T/C,[10],129 % of control
same,survivor count,[10],6 of 6
same,survivor count,"dose: 160.0 mg/kg/injection, vehicle: saline",6 of 6
O=C(Nc1ccc(C2=NCCCN2)cc1)c1ccc(NC(=O)c2ccc(C3=NCCCN3)cc2)cc1,T/C,[11],"103, 105, 106 [5 of 6 alive], 120 % of control"
same,T/C,[12],"112, 120, 129, 143 % of control"
same,T/C,[13],"170, 184, 209, 235 % of control"
same,T/C,[14],"100, 115, 126, 140 % of control"
same,survivor count,"dose: 16.0 mg/kg/injection, vehicle: other",5 of 6 and 6 of 6
Cc1cc(N(CCCl)CCCl)ccc1N=Nc1ccccc1C(=O)O,T/C,[6],126 and 135 % of control
same,T/C,[8],146 % of control
same,survivor count,[7],5 of 6 and 6 of 6
S=P(N1CCOCC1)(N1CC1)N1CC1,T/C,[5],100 and 107 % of control
same,survivor count,[5],6 of 6
same,T/C,[6],103 and 110 % of control
same,survivor count,[6],6 of 6
same,survivor count,[8],6 of 6
same,survivor count,[9],5 of 6 and 6 of 6
CS(=O)(=O)OCCCCOS(C)(=O)=O,T/C,[15],"96, 100, 102 % of control"
same,survivor count,[15],5 of 6
same,T/C,[16],100 and 108 % of control
same,survivor count,[16],6 of 6
same,T/C,[17],100 and 105 % of control
same,survivor count,[17],6 of 6
same,T/C,[18],94 % of control
same,survivor count,[18],5 of 6 and 6 of 6
CN(C)[C@@H]1C(=O)C(C(N)=O)=C(O)[C@@]2(O)C(=O)C3=C(O)c4c(O)cccc4C[C@H]3C[C@@H]12,survivor count,"dose: 60.0 mg/kg/injection, vehicle: saline",5 of 6
CN(C)/N=N/c1nc[nH]c1C(N)=O,T/C,[1],133 % of control
O=C(Nc1ccc(C2=NCCCN2)cc1)c1ccc(C(=O)Nc2ccc(C3=NCCCN3)cc2)cc1,T/C,"dose: 0.5 mg/kg/injection, vehicle: other","105, 106, 109 [5 of 6 alive], 113 % of control"
same,T/C,[11],"123, 126, 128, 134 % of control"
same,T/C,[12],"171, 180, 181 [5 of 6 alive], 197 % of control"
same,T/C,[13],"106, 182, 246 % of control"
same,survivor count,[13],6 of 6
same,survivor count,[14],5 of 6 and 6 of 6
N=[N+]=CC(=O)OCC(N)C(=O)O (centres undefined),survivor count,[17],6 of 6
OC(CBr)C(O)C(O)C(O)CBr (centres undefined),T/C,[1],134 % of control
CC[C@]1(O)C[C@H]2CN(CCc3c([nH]c4ccccc34)[C@@](C(=O)OC)(c3cc4c(cc3OC)N(C=O)[C@H]3[C@@](O)(C(=O)OC)[C@H](OC(C)=O)[C@]5(CC)C=CCN6CC[C@]43[C@@H]65)C2)C1,T/C,"dose: 0.06 mg/kg/injection, vehicle: saline",135 % of control
same,T/C,"dose: 0.12 mg/kg/injection, vehicle: saline",128 % of control
same,survivor count,"dose: 0.5 mg/kg/injection, vehicle: saline",5 of 6
O=C(Nc1ccc(NC2=NCCN2)cc1)c1ccc(C(=O)Nc2ccc(NC3=NCCN3)cc2)cc1,T/C,"dose: 4.0 mg/kg/injection, vehicle: saline",126 and 139 % of control
same,T/C,"dose: 8.0 mg/kg/injection, vehicle: saline",143 % of control
same,survivor count,"dose: 16.0 mg/kg/injection, vehicle: saline",6 of 6
